Results on 63 molecules are retold here after PubChem BioAssay AID445 (National Center for Advancing Translational Sciences (NCATS), 2006).

The nature of the test: IkB Signaling. As to conditions: ABC-DLBCL IkBa-CBG/CBR dual luciferase ratio (green luciferase fused to IkBa over red control in OCI-Ly3 lymphoma cells), 4 h. The gist of the method:
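In this assay, an IκBα–CBG68 fusion accumulates when IKK-driven degradation is blocked; native CBR normalizes for cell number. OCI-Ly3 cells were treated 4 h with compound and doxycycline, then green and red light read after Chroma-Glo addition.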

Where [1] appears, read: measured here: control luc red channel unless noted.

SMILES strings stand for the structures. This is one part of the list. The main result of the screen is listed elsewhere. These columns were measured beside it and carry no call. The list favours compounds with an active or inconclusive main result. Potencies come from curve fits of mixed quality, noted in brackets.

As to `CCCCOc1ccc(S(=O)(=O)Nc2ccc(-c3ccc(N4CCCCCC4)nn3)cc2)cc1`, the concentration at half-maximal activity (AC50) under setting [1] is 3.16 µM [falling, full curve].
For the molecule `COc1ccc(Cn2c(SCc3ccc(C(=O)NC4CCCC4)cc3)nc3ccncc32)cc1`, the AC50 under setting [1] is 25.1 µM [falling, single point].
In the case of `CCOC(=O)c1c(C)oc2ncnc(N3CCN(c4ccccc4OC)CC3)c12`, the AC50 under setting [1] is 20 µM [falling, partial curve].
Take `CCCN1CCN(CCNC(=O)Nc2ccc(OC)cc2OC)CC1`: the AC50 under setting [1] is 39.8 µM [falling, single point].
Still for that read-out and setting: in the case of `O=C(CC1C(=O)N(c2ccccc2)C(=O)N1CCC1=CCCCC1)Nc1ccc(F)cc1` (centres undefined) it was 31.6 µM [falling, single point]; in that of `COc1ccc(C(=O)Nc2nc3ccccc3[nH]2)cc1OC`, 12.6 µM [falling, partial curve]; in that of `Cc1ccccc1NC(=O)CSc1nc(-c2ccccc2C)nc2cc(=O)[nH]n12`, 31.6 µM [falling, single point].
With `COc1ccccc1N(CC(=O)NCCSCc1ccccc1)S(=O)(=O)c1ccc(C)cc1`, under setting [1], the concentration at half-maximal activity (AC50) is 12.6 µM [falling, partial curve].
For the molecule `CCc1ccc(C(=O)c2cn(CC(=O)Nc3ccc(F)cc3)c3ccc(OC)cc3c2=O)cc1`, the AC50 under setting [1] is 31.6 µM [falling, partial curve].
Same read-out and setting: in the case of `COc1ccc(NC(=O)Cn2c(=O)n(C(C)C)c(=O)c3oc4ccccc4c32)cc1Cl` it was 20 µM [falling, single point]; in that of `COc1ccc(C(=O)Cn2nnc(-c3ccccc3NC(=O)c3ccco3)n2)cc1`, 10 µM [falling, partial curve].
As for `Cc1cccc(OCC(=O)OCc2cc(=O)n3nc(C4CCCCC4)sc3n2)c1`, the AC50 under setting [1] was 0.0501 µM [rising, full curve, poor fit].
Still for that read-out and setting: in the case of `O=C(C1CCCN(S(=O)(=O)Cc2ccccc2)C1)N1CCc2ccccc21` (centres undefined) it was 39.8 µM [falling, single point]; in that of `COc1ccc(C(=O)COC(=O)c2cccc(NC(=O)c3ccc(OC)c(OC)c3)c2)cc1`, 7.94 µM [falling, partial curve]; in that of `COc1ccc(C(=O)c2cn(Cc3ccc(F)cc3)c3ccc(C)cc3c2=O)cc1`, 31.6 µM [falling, single point].
On to `COc1cccc(C(=O)/C=C/Nc2cc(C)ccc2O)c1`, for which, under setting [1], the AC50 is 39.8 µM [falling, single point].
Same read-out and setting: in the case of `Cc1ccc(CNC(=O)CCc2c(C)nn(-c3ccc(N4CCCCC4)nn3)c2C)cc1` it was 10 µM [falling, partial curve].
With `Cc1ccc(-c2nc3ccccn3c2Nc2ccc3c(c2)OCO3)cc1`, the AC50 under setting [1] is 39.8 µM [falling, single point].
On the same count and under the same terms, with `O=C(NC1CCCCCC1)C1CCN(C(=O)N2CCOc3ccccc32)CC1` the figure was 15.8 µM [falling, partial curve]; with `COCCNC(=O)c1c(C)oc2nc(C)nc(N3CCOCC3)c12`, 3.16 µM [rising, single point].
Still for that read-out and setting: with `O=C(O)C1CCCCC1C(=O)Nc1ccccc1Nc1ccccc1` (centres undefined) the figure was 12.6 µM [falling, partial curve]; with `COc1ccc(C2c3c(-c4c(C)cc(C)cc4O)n[nH]c3C(=O)N2Cc2ccco2)cc1` (centres undefined), 31.6 µM [falling, single point].
Turning to `CCOC(=O)c1c(NC(=O)c2ccccc2Cl)sc2c1CCCC2`, under setting [1], the half-maximal activity concentration (AC50) is 12.6 µM [falling, single point].
On the same count and under the same terms, with `CCOCCOC(=O)C1=C(C)Nc2ccc(C)cc2S1` the figure was 25.1 µM [falling, partial curve]; with `CCn1c(SCC(=O)Nc2nc3ccc(C)cc3s2)nc2c(c1=O)SC(C)C2` (centres undefined), 3.16 µM [falling, full curve, poor fit].
The same measure, in the same setting: with `Cc1ccc(-c2nnc(SCc3ccccc3C#N)o2)cc1` the figure was 0.501 µM [rising, partial curve]; with `COc1cccc(-c2nc(CS(=O)(=O)CC(=O)NCc3ccc(C)cc3)c(C)o2)c1`, 39.8 µM [falling, partial curve].
Still for that read-out and setting: in the case of `Cc1ccc(CN2C(=O)C(O)(c3c[nH]c4ccccc34)c3cc(Cl)ccc32)cc1` (centres undefined) it was 25.1 µM [falling, partial curve]; in that of `Cc1ccc2c(c1)NC(c1cccnc1)=NC(c1ccc(F)cc1)=N2`, 39.8 µM [falling, single point].
`O=C(CSc1nc2cc(Cl)ccc2s1)NC(=O)NCc1ccco1`: the AC50 under setting [1] is 10 µM [falling, partial curve].
As for `N=c1c(S(=O)(=O)c2ccccc2)cc2c(=O)n3ccccc3nc2n1Cc1ccco1`, under setting [1], the AC50 was 25.1 µM [rising, partial curve] [measured here: IkB-luc green channel].
Still for that read-out and setting: in the case of `CCc1ccc(CN(Cc2cn[nH]c2-c2ccc(OC)cc2)C(=O)Nc2ccc(C)c(F)c2)cc1` it was 3.16 µM [falling, single point]; in that of `N#Cc1cn(CC(=O)NCCc2c[nH]c3ccccc23)c2ccccc12`, 31.6 µM [falling, partial curve]; in that of `Cc1ccc(NC(=O)c2oc3ccccc3c2NC(=O)c2ccccc2C)cc1`, 10 µM [falling, partial curve].
On the same count and under the same terms, in the case of `O=C(NC1CC(=O)N(c2cccc(F)c2)C1)C1CC1` (centres undefined) it was 3.98 µM [falling, partial curve].
With `CCOC(=O)c1c(-c2ccccc2)oc2ccc(NS(=O)(=O)c3ccc(C)cc3C)cc12`, under setting [1], the AC50 was 20 µM [falling, partial curve].
Turning to `CSc1nnc(NC(=O)Cc2coc3cc(C)ccc23)s1`, the concentration at half-maximal activity (AC50) under setting [1] was 3.16 µM [rising, partial curve].
Regarding `Cc1nc(C)c(-c2ccc(SCC(=O)Nc3ccc(F)c(F)c3)nn2)s1`, the AC50 under setting [1] was 25.1 µM [falling, partial curve].
Still for that read-out and setting: in the case of `COc1cc(/C=C(\C#N)c2nc3ccccc3n2C)cc(OC)c1OC` it was 15.8 µM [falling, partial curve].
Take `Cc1ccc(NC(=O)c2cc(S(=O)(=O)N3CCCC(C)C3)cn2C)c(Br)c1` (centres undefined): the AC50 under setting [1] was 1.58 µM [falling, partial curve].
Same read-out and setting: in the case of `CCN1CCN(c2oc(/C=C/c3ccccc3OC)nc2C#N)CC1` it was 20 µM [falling, partial curve]; in that of `O=C(CSc1nc2c(oc3ccccc32)c(=O)n1-c1ccccc1F)Nc1ccccc1`, 12.6 µM [falling, partial curve].
Consider `O=c1c2ccccc2nc2ccc(NCc3ccco3)nn12`, for which the half-maximal activity concentration (AC50) (measured here: IkB-luc green channel) was 6.31 µM [rising, single point] and the AC50 (measured here: control luc red channel) was 10 µM [falling, partial curve].
With `Cc1ccc(CN2CCSc3ccc(C(=O)N4CCN(c5cc(C)ccc5C)CC4)cc32)cc1`, the AC50 under setting [1] was 15.8 µM [falling, partial curve].
Same read-out and setting: in the case of `CCOC(=O)c1c(S(=O)(=O)N2CCCC(C(=O)N3CCN(c4cccc(C)c4C)CC3)C2)c(C)n(C)c1C` (centres undefined) it was 12.6 µM [falling, partial curve].
Still for that read-out and setting: with `COc1cc(C2CC(=O)c3c([nH]c(C(=O)OCCOC(C)C)c3C)C2)cc(OC)c1OC` (centres undefined) the figure was 7.94 µM [falling, partial curve]; with `CCOc1cc(S(=O)(=O)n2ccnc2C(C)C)ccc1Cl`, 15.8 µM [falling, partial curve].
Still for that read-out and setting: with `Cc1ccccc1NC(=O)CCn1cnc2onc(-c3ccc(F)cc3)c2c1=O` the figure was 31.6 µM [falling, single point]; with `Cc1ccc(N2C(=O)[C@@H]3[C@H](C2=O)C2c4ccccc4C=CN2[C@@H]3C(=O)c2ccco2)cc1` (some centres undefined), 7.94 µM [falling, partial curve]; with `Cc1ccc(NS(=O)(=O)c2c(C(=O)N3CCC(C)CC3)c(C)n(C)c2C)cc1Cl`, 6.31 µM [rising, single point].
Turning to `CCOc1ccc(NC(=O)CCn2cnc3onc(-c4ccc(F)cc4)c3c2=O)cc1`, the AC50 under setting [1] was 0.158 µM [falling, partial curve].
Consider `Cc1cccc(C)c1NC(=O)Cn1c(=O)n(CC2CCC(C(=O)NCCc3ccccc3)CC2)c(=O)c2ccccc21` (centres undefined), for which the concentration at half-maximal activity (AC50) under setting [1] is 20 µM [falling, single point].
Same read-out and setting: with `CCOC(=O)CSc1nc2c(sc3ccccc32)c(=O)n1CCc1ccccc1` the figure was 0.316 µM [falling, partial curve, poor fit]; with `O=[N+]([O-])c1cc(-c2nc(-c3ccccc3)no2)ccc1N1CCN(c2ccccc2)CC1`, 6.31 µM [falling, partial curve].
For the molecule `CSc1ccc(S(=O)(=O)Nc2c(C)cccc2C)cc1`, the AC50 under setting [1] is 10 µM [falling, partial curve].
On the same count and under the same terms, with `CC(=O)c1ccc(S(=O)(=O)Nc2cccc(-c3ccc(N4CCCCC4)nn3)c2)cc1` the figure was 20 µM [falling, partial curve]; with `Cc1ccc(OS(=O)Nc2cccc3nccnc23)cc1` (centres undefined), 20 µM [rising, partial curve] [measured here: IkB-luc green channel]; with `Cc1ccc(C(=O)O)cc1Nc1nc2ccccc2n2nnnc12`, 0.794 µM [falling, full curve].
Turning to `COc1ccc(C(=O)n2nc(-c3ccccc3)nc2N)cc1OC`, the half-maximal activity concentration (AC50) under setting [1] is 15.8 µM [falling, partial curve].
Same read-out and setting: in the case of `Oc1ccccc1-c1cc(-c2cccc(F)c2)n[nH]1` it was 20 µM [falling, partial curve, poor fit]; in that of `COc1ccc(-c2cc3ccc(O)c(CN4CCOCC4)c3oc2=O)cc1`, 1 µM [rising, full curve, poor fit].
As for `Cc1cccc(NC(=O)c2nc(S(C)(=O)=O)ncc2Cl)c1`, under setting [1], the AC50 was 3.16 µM [falling, full curve].
The same measure, in the same setting: in the case of `Cc1cccc(NC(=O)CSc2nc(-c3ccco3)nc3cc(=O)[nH]n23)c1` it was 20 µM [falling, partial curve, poor fit].

As usually defined, the AC50 is the midpoint of the concentration-response curve, whichever way the signal moves.
